No constants are given. Whether binding was seen depends on the method and setting.
Target: recombinant full-length mouse PrP (wt rPrP), PrP23-230 (mouse) (UniProt P04925)
Experiment: two-colour fluorescence cross-correlation spectroscopy (FCS/SIFT); both purified

recombinant full-length mouse PrP (wt rPrP), PrP23-230 (from UniProt P04925 23-230)
binding: no binding (condition: in 0.2% SDS)
